# According to the supplement of paper PMC8291772:
# The chains behind the UniProt entries cited, without tags or fusion partners. Where a name states a change or a piece, a line headed by the entry shows the natural chain unless it says otherwise.
# UniProt P06526: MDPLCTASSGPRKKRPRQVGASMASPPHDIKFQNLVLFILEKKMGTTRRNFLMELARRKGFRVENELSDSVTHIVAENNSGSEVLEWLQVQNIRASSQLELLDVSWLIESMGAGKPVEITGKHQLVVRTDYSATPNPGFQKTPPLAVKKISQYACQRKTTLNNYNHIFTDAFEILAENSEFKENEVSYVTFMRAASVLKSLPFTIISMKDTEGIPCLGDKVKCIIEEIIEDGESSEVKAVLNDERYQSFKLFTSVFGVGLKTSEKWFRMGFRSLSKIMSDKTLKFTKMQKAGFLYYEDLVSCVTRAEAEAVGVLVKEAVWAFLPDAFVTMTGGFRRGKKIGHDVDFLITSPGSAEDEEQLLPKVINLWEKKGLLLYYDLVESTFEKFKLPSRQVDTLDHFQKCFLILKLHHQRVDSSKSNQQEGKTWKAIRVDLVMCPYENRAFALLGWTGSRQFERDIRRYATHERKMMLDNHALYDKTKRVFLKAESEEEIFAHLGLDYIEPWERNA
# ± gives the standard error. The list shows a part of the results. This data set is noisy: repeats of one test often differ as much as different tests do.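 The library contained all possible DNA sequences one to five nucleotides in length. General extension ability was assessed against a threshold of the blocked-version mean plus three standard deviations, and the probe detects only chains extended by seven or more dT.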
# Target: terminal deoxynucleotidyl transferase (calf thymus) (UniProt P06526)
# Assay: TdT poly-dT extension signal (Cy3 hybridisation fluorescence, uncapped minus capped) (fluorescence a.u.); higher = more efficient initiation of TdT extension
# Settings: initiator chemistry: D-DNA, free 3'-OH (5'-tethered via HEG linker)
# Description: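 All mono- to pentamer initiator sequences were made by photolithographic in situ synthesis (reverse 5'->3' direction) on glass on a single hexaethylene glycol linker. Each was made in uncapped and DMTr-dT-capped versions, about 11 replicate features each. Arrays were extended with calf thymus TdT (0.2 U/uL) and 100 uM dTTP in TdT buffer with 0.25 mM CoCl2 for 120 min at 37 C, then hybridised with an rA18-Cy3 probe at 4 C and scanned at 532 nm. The value is the mean uncapped signal minus the mean capped signal of the same sequence.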
row,Sequence,TdT poly-dT extension signal
1,TCTAT,3270 ± 350
2,CCTG,3880 ± 300
3,GGAA,3790 ± 560
4,TGTTG,3890 ± 440
5,CCCGT,4870 ± 530
6,AGAAC,3600 ± 490
7,GGCA,3350 ± 340
8,CGTCC,3190 ± 190
9,CCTC,2800 ± 410
10,ATCAT,3770 ± 460
11,ACGGG,3960 ± 520
12,AGGTG,3390 ± 340
13,TTGGA,2900 ± 650
14,ACGGA,4240 ± 500
15,AGCAG,3360 ± 900
16,GACTT,3190 ± 310
17,CTGG,4310 ± 320
18,CGCCC,3000 ± 310
19,CGTT,2930 ± 320
20,TGTCT,3410 ± 300
21,GCGGC,3550 ± 390
22,GCACT,3860 ± 480
23,TCTA,3090 ± 550

row,Sequence,TdT poly-dT extension signal
1,AGATT,3190 ± 290
2,TCTCC,2850 ± 240
3,TTCCT,3940 ± 310
4,TGTCG,4000 ± 250
5,AGGCT,3660 ± 280
6,TTGAC,2920 ± 360
7,GAAAG,4070 ± 460
8,GTACC,2920 ± 280
9,TTTCT,3830 ± 580
10,CAAA,3870 ± 410
11,GGTGA,2810 ± 590
12,ATGCA,3830 ± 720
13,TTGCG,4460 ± 600
14,CTGTT,4080 ± 400
15,GTCA,3410 ± 290
16,GACAG,4060 ± 730
17,AGAC,2780 ± 260
18,ACGAC,3150 ± 290
19,CATG,3800 ± 420
20,TCAGT,3830 ± 400
21,GGGTG,3920 ± 410
22,AGGGA,4210 ± 400
23,GAGGC,2810 ± 360

row,Sequence,TdT poly-dT extension signal
1,GTTA,3490 ± 490
2,CCCCT,3370 ± 260
3,TACTC,2960 ± 240
4,GTTTA,4140 ± 370
5,ACTGT,4160 ± 480
6,AGTAG,2330 ± 560
7,CAGCG,4340 ± 520
8,GGAT,3340 ± 300
9,ACCCC,3180 ± 310
10,GACCC,2660 ± 290
11,GGTGG,4600 ± 740
12,GCAGG,4300 ± 340
13,TTTCA,3510 ± 360
14,TTCA,3540 ± 490
15,GAGAA,4480 ± 450
16,GTAT,3430 ± 380
17,TATAT,4180 ± 410
18,GGCTG,3220 ± 370
19,AGGGG,4880 ± 430
20,CTCAA,4300 ± 530
21,TGGGA,4420 ± 570
22,ATAA,3680 ± 270
23,AAATA,3630 ± 480

row,Sequence,TdT poly-dT extension signal
1,CACGG,4450 ± 750
2,CGGGC,3880 ± 330
3,CCGT,3970 ± 400
4,TCGTT,3010 ± 470
5,TGTT,3760 ± 280
6,CTGA,3820 ± 290
7,GGTCC,2850 ± 240
8,ACTGA,4020 ± 290
9,ATCCT,3490 ± 240
10,TGCGT,3660 ± 390
11,GAGT,3750 ± 420
12,TCTGG,3530 ± 490
13,TCCAC,3610 ± 190
14,GGCGA,4180 ± 420
15,GATA,3860 ± 400
16,AGGAC,2940 ± 300
17,CGTTC,2560 ± 340
18,CATC,3520 ± 280
19,ATTC,3130 ± 270
20,TGGC,2750 ± 400
21,CGACG,3880 ± 320
22,TCACC,2760 ± 290
23,GTGCT,3490 ± 510

row,Sequence,TdT poly-dT extension signal
1,TTGCA,3470 ± 430
2,CGGTC,3400 ± 370
3,CCGTA,4140 ± 360
4,GATTC,2620 ± 300
5,TAGGA,3600 ± 400
6,GCAG,4160 ± 600
7,GGCAA,4010 ± 390
8,GGCAG,3910 ± 460
9,AACTC,2630 ± 260
10,AACGA,3280 ± 460
11,GCAAT,4010 ± 380
12,TGTAC,2920 ± 430
13,CCTCA,4210 ± 260
14,GGGTT,4820 ± 330
15,GCACG,4350 ± 370
16,CTTAT,3630 ± 370
17,ATCGG,3520 ± 400
18,CAAG,4090 ± 230
19,TGCT,3490 ± 330
20,CCACT,3550 ± 220
21,GTCTT,3420 ± 320
22,AAAGG,3360 ± 440
23,AGCTG,3930 ± 450

# Fetched one by one from the list above, 4 records:
row,Sequence,TdT poly-dT extension signal
13,CCTCA,4210 ± 260
11,GCAAT,4010 ± 380
10,AACGA,3280 ± 460
17,ATCGG,3520 ± 400

# More records follow.

row,Sequence,TdT poly-dT extension signal
1,GTTG,3620 ± 300
2,TCTAC,3610 ± 210
3,ATGAC,3360 ± 280
4,GTTTG,3780 ± 300
5,CAGGA,5070 ± 300
6,GGCGT,3930 ± 460
7,ACCC,3300 ± 310
8,TGTAT,4020 ± 540
9,ATCTG,2950 ± 450
10,TACTA,3360 ± 340
11,AGCT,3470 ± 440
12,TGCTT,3960 ± 670
13,TGATA,3200 ± 420
14,GGGA,3620 ± 450
15,ATAAA,3410 ± 420
16,CTGC,3300 ± 500
17,AATTT,3580 ± 340
18,AAATC,3290 ± 250
19,TGACT,3120 ± 270
20,GGTC,3080 ± 430
21,CTCTA,3540 ± 320
22,TTTG,3430 ± 420
23,AGCAT,3430 ± 300
